Values quoted from earlier work as cited in patent publication US6407137B2, “Dopamine analog amide” (Protarga, Inc., priority 1988, dated 2002).
For at least one compound, name, drawing or mass did not settle the structure.

Details: rats; cited from earlier work

O=c1[nH]c2ccccc2n1C1CCN(CCCC(c2ccc(F)cc2)c2ccc(F)cc2)CC1 [Pemozide]
depression of the rate of self-stimulation: about 90%
